According to the supplement of paper PMC10849652:
The list shows a part of the results. Residues, ends and D or L forms follow the SMILES beside them. *: point of attachment. Cbz = O=C(OCc1ccccc1)*

By UniProt entry, the sequences of proteins in these tests, tags left out. Where a name states a change or a piece, a line headed by the entry shows the natural chain unless it says otherwise.
UniProt Q9HD23: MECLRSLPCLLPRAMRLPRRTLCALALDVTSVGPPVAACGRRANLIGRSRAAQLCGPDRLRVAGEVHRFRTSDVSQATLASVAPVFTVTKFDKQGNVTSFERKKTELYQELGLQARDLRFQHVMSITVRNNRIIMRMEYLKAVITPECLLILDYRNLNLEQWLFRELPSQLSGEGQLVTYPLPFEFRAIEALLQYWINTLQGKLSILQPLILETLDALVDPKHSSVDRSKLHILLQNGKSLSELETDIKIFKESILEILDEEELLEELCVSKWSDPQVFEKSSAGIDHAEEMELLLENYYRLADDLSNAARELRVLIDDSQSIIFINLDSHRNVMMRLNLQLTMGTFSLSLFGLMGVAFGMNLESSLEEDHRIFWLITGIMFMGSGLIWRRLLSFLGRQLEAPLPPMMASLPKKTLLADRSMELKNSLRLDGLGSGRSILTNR
UniProt Q9Y6C9: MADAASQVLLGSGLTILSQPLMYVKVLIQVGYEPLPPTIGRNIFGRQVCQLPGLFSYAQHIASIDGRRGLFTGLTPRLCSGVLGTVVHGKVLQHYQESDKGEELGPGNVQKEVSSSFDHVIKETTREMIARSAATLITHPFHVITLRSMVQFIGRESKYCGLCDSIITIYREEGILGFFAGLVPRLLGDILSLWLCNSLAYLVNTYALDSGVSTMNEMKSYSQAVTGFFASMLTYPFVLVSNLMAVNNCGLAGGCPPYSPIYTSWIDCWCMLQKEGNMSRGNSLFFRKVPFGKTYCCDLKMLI
UniProt Q13614, whole entry, looked up: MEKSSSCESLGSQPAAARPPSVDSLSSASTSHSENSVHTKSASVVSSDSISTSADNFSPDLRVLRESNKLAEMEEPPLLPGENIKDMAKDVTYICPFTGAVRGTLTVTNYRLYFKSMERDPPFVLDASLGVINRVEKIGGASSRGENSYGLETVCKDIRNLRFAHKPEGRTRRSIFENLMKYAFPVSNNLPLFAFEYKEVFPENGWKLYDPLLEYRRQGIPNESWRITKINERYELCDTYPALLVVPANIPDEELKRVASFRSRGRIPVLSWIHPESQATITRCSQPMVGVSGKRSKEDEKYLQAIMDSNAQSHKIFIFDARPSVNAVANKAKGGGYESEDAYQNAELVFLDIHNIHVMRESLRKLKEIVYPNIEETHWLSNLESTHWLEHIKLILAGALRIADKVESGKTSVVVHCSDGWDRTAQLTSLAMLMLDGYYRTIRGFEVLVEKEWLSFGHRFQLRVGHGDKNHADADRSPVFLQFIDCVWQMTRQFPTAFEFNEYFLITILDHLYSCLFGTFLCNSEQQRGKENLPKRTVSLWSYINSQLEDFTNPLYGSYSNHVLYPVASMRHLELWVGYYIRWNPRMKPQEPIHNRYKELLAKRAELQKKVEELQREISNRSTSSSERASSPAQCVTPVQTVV
UniProt Q969V6: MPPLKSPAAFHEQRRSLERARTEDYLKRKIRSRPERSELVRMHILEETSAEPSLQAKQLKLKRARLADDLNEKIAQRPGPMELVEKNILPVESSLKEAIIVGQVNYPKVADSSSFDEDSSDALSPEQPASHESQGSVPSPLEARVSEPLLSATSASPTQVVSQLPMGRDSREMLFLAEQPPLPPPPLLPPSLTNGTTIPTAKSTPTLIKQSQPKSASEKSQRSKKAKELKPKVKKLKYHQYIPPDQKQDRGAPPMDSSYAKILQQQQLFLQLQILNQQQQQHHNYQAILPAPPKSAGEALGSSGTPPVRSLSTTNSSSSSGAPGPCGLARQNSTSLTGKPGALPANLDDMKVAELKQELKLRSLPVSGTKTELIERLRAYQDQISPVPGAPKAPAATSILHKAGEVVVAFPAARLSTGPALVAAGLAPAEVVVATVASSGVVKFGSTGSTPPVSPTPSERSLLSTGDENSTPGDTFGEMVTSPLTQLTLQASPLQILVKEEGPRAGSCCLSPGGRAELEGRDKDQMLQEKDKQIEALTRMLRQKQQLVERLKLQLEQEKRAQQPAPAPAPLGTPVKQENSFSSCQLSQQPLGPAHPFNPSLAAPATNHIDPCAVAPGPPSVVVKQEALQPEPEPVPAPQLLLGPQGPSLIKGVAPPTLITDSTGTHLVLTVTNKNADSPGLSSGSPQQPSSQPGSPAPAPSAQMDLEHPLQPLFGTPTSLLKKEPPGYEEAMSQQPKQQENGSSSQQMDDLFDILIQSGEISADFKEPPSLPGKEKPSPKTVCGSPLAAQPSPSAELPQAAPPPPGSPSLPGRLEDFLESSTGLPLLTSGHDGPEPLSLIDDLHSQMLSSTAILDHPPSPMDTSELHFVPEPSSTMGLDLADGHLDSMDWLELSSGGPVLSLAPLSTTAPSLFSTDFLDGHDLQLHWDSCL
UniProt O94776: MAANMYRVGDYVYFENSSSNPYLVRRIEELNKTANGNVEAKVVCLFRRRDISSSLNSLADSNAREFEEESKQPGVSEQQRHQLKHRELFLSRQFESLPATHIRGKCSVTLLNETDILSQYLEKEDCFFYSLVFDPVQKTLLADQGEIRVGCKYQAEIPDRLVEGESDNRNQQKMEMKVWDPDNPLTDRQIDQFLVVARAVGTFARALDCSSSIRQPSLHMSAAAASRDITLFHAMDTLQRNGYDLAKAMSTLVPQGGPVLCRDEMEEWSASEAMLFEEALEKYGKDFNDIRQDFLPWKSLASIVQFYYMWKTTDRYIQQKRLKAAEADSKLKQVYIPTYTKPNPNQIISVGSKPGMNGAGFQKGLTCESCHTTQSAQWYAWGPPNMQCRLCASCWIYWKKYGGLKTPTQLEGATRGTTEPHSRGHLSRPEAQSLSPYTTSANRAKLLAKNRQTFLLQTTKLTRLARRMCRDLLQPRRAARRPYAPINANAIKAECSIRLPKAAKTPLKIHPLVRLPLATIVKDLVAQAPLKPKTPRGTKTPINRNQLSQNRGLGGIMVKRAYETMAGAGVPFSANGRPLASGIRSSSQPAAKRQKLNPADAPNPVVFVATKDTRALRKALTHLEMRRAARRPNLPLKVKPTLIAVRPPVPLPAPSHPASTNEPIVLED
UniProt Q99417: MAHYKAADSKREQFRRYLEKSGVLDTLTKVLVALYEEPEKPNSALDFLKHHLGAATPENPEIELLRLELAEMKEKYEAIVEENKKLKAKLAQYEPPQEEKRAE
UniProt Q13615: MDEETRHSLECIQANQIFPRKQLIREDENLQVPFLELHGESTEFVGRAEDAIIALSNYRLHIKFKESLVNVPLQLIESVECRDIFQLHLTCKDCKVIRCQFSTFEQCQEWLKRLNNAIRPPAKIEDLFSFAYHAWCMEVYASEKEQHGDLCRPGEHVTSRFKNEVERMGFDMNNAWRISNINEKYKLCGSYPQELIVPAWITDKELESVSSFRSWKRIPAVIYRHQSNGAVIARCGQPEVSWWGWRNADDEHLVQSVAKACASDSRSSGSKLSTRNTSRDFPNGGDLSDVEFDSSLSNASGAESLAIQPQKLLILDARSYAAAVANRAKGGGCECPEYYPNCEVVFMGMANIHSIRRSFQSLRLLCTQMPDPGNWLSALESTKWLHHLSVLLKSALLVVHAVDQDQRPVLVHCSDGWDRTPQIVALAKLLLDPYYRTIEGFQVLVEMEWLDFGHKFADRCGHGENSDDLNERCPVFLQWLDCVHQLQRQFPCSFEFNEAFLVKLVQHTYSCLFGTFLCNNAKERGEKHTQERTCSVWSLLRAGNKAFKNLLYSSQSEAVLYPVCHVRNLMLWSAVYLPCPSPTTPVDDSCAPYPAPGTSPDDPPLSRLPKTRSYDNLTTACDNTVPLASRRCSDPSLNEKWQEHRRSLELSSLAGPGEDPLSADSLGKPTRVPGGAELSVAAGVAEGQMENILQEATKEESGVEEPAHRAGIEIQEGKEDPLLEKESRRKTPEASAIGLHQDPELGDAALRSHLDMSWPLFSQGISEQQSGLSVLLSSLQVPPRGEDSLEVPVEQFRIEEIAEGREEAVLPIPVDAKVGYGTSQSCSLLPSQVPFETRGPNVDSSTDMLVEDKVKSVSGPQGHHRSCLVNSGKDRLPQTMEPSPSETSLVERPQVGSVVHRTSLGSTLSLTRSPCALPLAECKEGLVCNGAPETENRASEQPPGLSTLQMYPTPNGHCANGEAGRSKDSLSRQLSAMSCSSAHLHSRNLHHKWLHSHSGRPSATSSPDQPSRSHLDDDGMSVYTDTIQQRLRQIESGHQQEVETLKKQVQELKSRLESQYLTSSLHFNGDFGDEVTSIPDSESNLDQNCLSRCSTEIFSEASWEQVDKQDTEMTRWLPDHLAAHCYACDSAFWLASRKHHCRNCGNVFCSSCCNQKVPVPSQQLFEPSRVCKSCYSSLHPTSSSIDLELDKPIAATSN
UniProt Q9NVV4: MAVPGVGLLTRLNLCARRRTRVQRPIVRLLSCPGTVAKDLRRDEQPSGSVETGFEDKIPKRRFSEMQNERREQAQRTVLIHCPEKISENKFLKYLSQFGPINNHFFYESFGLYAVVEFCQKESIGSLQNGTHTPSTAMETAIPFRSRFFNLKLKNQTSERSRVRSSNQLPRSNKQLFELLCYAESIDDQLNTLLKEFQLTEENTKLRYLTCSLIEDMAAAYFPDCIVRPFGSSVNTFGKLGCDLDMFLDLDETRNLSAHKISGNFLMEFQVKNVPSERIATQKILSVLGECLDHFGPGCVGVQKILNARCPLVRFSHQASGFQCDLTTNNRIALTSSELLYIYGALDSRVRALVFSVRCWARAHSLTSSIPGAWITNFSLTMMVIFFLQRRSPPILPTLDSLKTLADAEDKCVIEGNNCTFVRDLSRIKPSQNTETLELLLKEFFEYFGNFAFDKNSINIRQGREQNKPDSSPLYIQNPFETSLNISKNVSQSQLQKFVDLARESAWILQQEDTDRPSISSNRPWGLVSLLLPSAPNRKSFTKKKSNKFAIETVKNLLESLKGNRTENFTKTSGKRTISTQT
UniProt Q969H8: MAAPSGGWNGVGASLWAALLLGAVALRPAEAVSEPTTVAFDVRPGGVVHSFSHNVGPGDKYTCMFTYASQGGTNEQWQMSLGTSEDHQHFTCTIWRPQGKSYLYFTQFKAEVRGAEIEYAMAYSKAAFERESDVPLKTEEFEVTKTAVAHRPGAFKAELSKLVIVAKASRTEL
UniProt Q13505: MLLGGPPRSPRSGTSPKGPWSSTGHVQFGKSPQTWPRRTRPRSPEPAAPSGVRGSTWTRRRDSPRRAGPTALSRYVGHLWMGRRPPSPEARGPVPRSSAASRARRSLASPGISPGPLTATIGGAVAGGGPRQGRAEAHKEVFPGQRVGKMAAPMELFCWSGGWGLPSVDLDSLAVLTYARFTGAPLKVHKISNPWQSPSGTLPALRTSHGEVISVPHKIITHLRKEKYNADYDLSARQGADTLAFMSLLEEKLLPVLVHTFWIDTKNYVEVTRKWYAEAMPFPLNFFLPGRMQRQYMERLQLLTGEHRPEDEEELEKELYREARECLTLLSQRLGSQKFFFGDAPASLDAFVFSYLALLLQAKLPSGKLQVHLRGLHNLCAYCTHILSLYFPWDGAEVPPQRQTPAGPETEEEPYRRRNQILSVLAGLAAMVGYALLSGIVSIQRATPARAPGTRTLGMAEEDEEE
UniProt Q96S97: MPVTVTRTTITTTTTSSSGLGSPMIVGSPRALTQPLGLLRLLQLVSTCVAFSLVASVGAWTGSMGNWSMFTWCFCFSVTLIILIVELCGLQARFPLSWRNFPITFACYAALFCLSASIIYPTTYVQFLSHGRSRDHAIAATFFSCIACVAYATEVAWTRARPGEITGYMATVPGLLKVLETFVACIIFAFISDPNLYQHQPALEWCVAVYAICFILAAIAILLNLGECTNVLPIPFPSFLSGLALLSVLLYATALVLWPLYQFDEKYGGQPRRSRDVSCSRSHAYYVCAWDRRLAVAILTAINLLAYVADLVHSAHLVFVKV
UniProt P42898: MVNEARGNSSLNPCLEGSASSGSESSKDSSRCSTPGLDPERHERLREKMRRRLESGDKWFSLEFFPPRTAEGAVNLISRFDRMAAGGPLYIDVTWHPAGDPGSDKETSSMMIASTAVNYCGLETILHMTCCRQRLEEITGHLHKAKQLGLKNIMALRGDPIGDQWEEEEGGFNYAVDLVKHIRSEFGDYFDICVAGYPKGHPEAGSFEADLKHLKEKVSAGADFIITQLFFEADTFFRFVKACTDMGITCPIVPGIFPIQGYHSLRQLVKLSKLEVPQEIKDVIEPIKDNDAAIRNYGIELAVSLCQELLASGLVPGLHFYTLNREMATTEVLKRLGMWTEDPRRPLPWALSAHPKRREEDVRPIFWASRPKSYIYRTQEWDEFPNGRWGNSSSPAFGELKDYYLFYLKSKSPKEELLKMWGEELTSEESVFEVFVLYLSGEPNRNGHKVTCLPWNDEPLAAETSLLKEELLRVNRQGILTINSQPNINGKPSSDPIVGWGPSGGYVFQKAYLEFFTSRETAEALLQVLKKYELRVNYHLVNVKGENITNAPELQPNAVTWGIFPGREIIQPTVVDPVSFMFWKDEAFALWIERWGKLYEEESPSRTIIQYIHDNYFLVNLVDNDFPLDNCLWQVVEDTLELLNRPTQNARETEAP

Key:
Experiment in all cases: log2 fold change, soluble protein after heating vs DMSO (PISA); higher = thermal stabilisation; K562 cells, 10 uM, 30 min; active = over 0.2 and 3.5 SD of the protein, either way, in both replicates (recomputed)
erlotinib = compound: C#Cc1cccc(Nc2ncnc3cc(OCCOC)c(OCCOC)cc23)c1 [erlotinib]
How it was run: (§1)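 Soluble protein was quantified by TMTpro 16plex LC-MS/MS after channel sums were equalised. It was obtained as the supernatant after 21,000xg for 90 min from pooled aliquots of K562 cells (2×10^6 cells/mL, 10 μM compound, 30 min) heated for 3 min across 48°C-58°C and extracted in PBS with 0.5% NP-40 at 4°C. Thermal stability values are relative to control samples and come from duplicates. They are given as log2 fold changes.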

[1] = compound: C/C(=N\NC(=O)C1=CC(=CC=C1)S(=O)(=O)N2CCOCC2)/C3=C(C=CC(=C3)Cl)O
How it was run: as §1

[2] = compound: C1=CC(=C(C=C1Cl)C2=NC3=NC=CN=C3C(=N2)NC4=CC=NC=C4)F
How it was run: as §1

[3] = compound: C1=CC(=CC=C1C2=NC3=C(N2)C=C(C=C3)C(=O)N)OC4=CC=C(C=C4)Cl
How it was run: as §1

[4] = compound: C1=CC2=C(C=CC(=C2)/C=C\3/C(=O)NC(=NCC4=CC=CS4)S3)N=C1
How it was run: as §1

[5] = compound: C1=CC2=NC=CN=C2C=C1/C=C/3\C(=O)NC(=O)S3
How it was run: as §1

[6] = compound: C1=CC=C(C=C1)C2=NC(=C(N2)C3=CC=NC=C3)C4=CC(=C(C=C4)Cl)O
How it was run: as §1

[7] = compound: C1=CC=C2C(=C1)C3=NNC4=CC=CC(=C43)C2=O
How it was run: as §1

[8] = compound: C1CCN(C1)C(=O)NC2=CC=CC(=C2)NC3=NC=C(C(=N3)NCCC4=CN=CN4)Br
How it was run: as §1

[9] = compound: C1CN(CCC1(CC2=CC=C(C=C2)Cl)N)C3=NC=NC4=C3C=CN4
How it was run: as §1

IRAK-1-4 Inhibitor I = compound: C1COCCN1CCN2C3=CC=CC=C3N=C2NC(=O)C4=CC(=CC=C4)[N+](=O)[O-] [IRAK-1-4 Inhibitor I]
How it was run: as §1

ibrutinib = compound: C=CC(=O)N1CCC[C@@H](n2nc(-c3ccc(Oc4ccccc4)cc3)c3c(N)ncnc32)C1 [ibrutinib]
How it was run: as §1

[10] = compound: CC(=O)c1cnc2ccc(-c3cc(Cl)c(O)c(Cl)c3)nc2c1N[C@H]1CC[C@H](CN(C)C)CC1
How it was run: as §1

ralimetinib = compound: CC(C)(C)Cn1c(N)nc2ccc(-c3[nH]c(C(C)(C)C)nc3-c3ccc(F)cc3)nc21 [ralimetinib]
How it was run: as §1

[11] = compound: CC(C)(O)CC(=O)NCCn1ccc2ncnc(Nc3ccc(Oc4cccc(C(F)(F)F)c4)c(Cl)c3)c21
How it was run: as §1

[12] = compound: CC(C)C1=C2N=C(C=C(N2N=C1)NCC3=CC=CC=C3)NCCCCCCN
How it was run: as §1

[13] = compound: CC(C)C[C@@H](C=O)NC(=O)[C@H](CC(C)C)NC(=O)[C@H](CC(C)C)NC(=O)OCc1ccccc1
How it was run: as §1

pinometostat = compound: CC(C)N(C[C@H]1O[C@@H](n2cnc3c(N)ncnc32)[C@H](O)[C@@H]1O)[C@H]1C[C@@H](CCc2nc3cc(C(C)(C)C)ccc3[nH]2)C1 [pinometostat]
How it was run: as §1

[14] = compound: CC1=C(C(CC(=O)N1)C2=CC=C(C=C2)C(F)(F)F)C(=O)NC3=C(C=C4C(=C3)C=NN4)F
How it was run: as §1

[15] = compound: CC1=C(C2=C(C=C1)C(=O)C3=CC=CC=C3N2CCCN)C
How it was run: as §1

Measured: log2 fold change

MRS2 (UniProt Q9HD23)
inactive: erlotinib -0.069 | [1] 0.019 | [2] 0.046 | [3] 0.015 | [4] -0.028 | [5] 0.053 | [6] 0.099 | [7] -0.009 | [8] 0.011 | [9] 0.033 | IRAK-1-4 Inhibitor I 0.001 | ibrutinib 0.003 | [10] 0.022 | ralimetinib 0.036 | [11] -0.014 | [12] 0.043 | [13] -0.055 | pinometostat -0.018 | [14] 0.006 | [15] 0.016

MYCBP2 (UniProt O75592)
inactive: erlotinib 0.073 | [1] -0.241 | [2] -0.119 | [3] 0.057 | [4] 0.028 | [5] -0.154 | [6] -0.249 | [7] -0.009 | [8] 0.357 | [9] 0.201 | IRAK-1-4 Inhibitor I 0.137 | ibrutinib 0.134 | [10] -0.016 | ralimetinib -0.078 | [11] 0.108 | [12] 0.073 | [13] 0.296 | pinometostat -0.028 | [14] -0.001 | [15] -0.134

MTCH2 (UniProt Q9Y6C9)
inactive: erlotinib 0.001 | [1] -0.038 | [2] 0.001 | [3] 0.029 | [4] 0.142 | [5] 0.015 | [6] 0.012 | [7] -0.046 | [8] 0.047 | [9] 0.03 | IRAK-1-4 Inhibitor I 0.074 | ibrutinib 0.031 | [10] -0.028 | ralimetinib -0.051 | [11] 0.023 | [12] -0.015 | [13] -0.017 | pinometostat -0.001 | [14] 0.026 | [15] 0.005

MTMR2 (UniProt Q13614)
inactive: erlotinib 0.004 | [1] 0.054 | [2] 0.009 | [3] 0.037 | [4] 0.007 | [5] -0.024 | [6] -0.067 | [7] 0.015 | [8] -0.046 | [9] -0.02 | IRAK-1-4 Inhibitor I -0.03 | ibrutinib 0.001 | [10] 0 | ralimetinib -0.091 | [11] 0.048 | [12] 0.007 | [13] 0.057 | pinometostat -0.037 | [14] 0.011 | [15] -0.002

MRTFA (UniProt Q969V6)
inactive: erlotinib 0.058 | [1] -0.063 | [2] 0.002 | [3] 0.019 | [4] 0.065 | [5] 0.021 | [6] 0.017 | [7] -0.08 | [8] -0.063 | [9] 0.049 | IRAK-1-4 Inhibitor I 0.102 | ibrutinib -0.02 | [10] 0.049 | ralimetinib -0.055 | [11] -0.103 | [12] -0.101 | [13] 0.062 | pinometostat -0.049 | [14] 0.159 | [15] -0.015

Retrieved one by one from the entries so far, two records:
MTMR2 (UniProt Q13614)
inactive: erlotinib 0.004 | [1] 0.054 | [2] 0.009 | [3] 0.037 | [4] 0.007 | [5] -0.024 | [6] -0.067 | [7] 0.015 | [8] -0.046 | [9] -0.02 | IRAK-1-4 Inhibitor I -0.03 | ibrutinib 0.001 | [10] 0 | ralimetinib -0.091 | [11] 0.048 | [12] 0.007 | [13] 0.057 | pinometostat -0.037 | [14] 0.011 | [15] -0.002

MTCH2 (UniProt Q9Y6C9)
inactive: erlotinib 0.001 | [1] -0.038 | [2] 0.001 | [3] 0.029 | [4] 0.142 | [5] 0.015 | [6] 0.012 | [7] -0.046 | [8] 0.047 | [9] 0.03 | IRAK-1-4 Inhibitor I 0.074 | ibrutinib 0.031 | [10] -0.028 | ralimetinib -0.051 | [11] 0.023 | [12] -0.015 | [13] -0.017 | pinometostat -0.001 | [14] 0.026 | [15] 0.005

(cont.)

MTA2 (UniProt O94776)
inactive: erlotinib 0.08 | [1] 0.01 | [2] 0.005 | [3] -0.045 | [4] 0.061 | [5] 0.009 | [6] 0.047 | [7] -0.013 | [8] -0.037 | [9] -0.013 | IRAK-1-4 Inhibitor I -0.076 | ibrutinib -0.024 | [10] -0.126 | ralimetinib 0.049 | [11] -0.043 | [12] -0.166 | [13] 0.017 | pinometostat 0.024 | [14] -0.015 | [15] 0.02

MYCBP (UniProt Q99417)
inactive: erlotinib -0.008 | [1] -0.068 | [2] 0.063 | [3] -0.026 | [4] 0.056 | [5] 0.048 | [6] -0.114 | [7] 0 | [8] 0.02 | [9] -0.049 | IRAK-1-4 Inhibitor I 0.035 | ibrutinib -0.021 | [10] -0.014 | ralimetinib -0.166 | [11] 0.012 | [12] 0.053 | [13] 0.06 | pinometostat -0.041 | [14] 0.019 | [15] 0.049

MTMR3 (UniProt Q13615)
inactive: erlotinib 0.035 | [1] -0.011 | [2] -0.052 | [3] 0.01 | [4] -0.101 | [5] 0.059 | [6] 0.041 | [7] 0.079 | [8] -0.034 | [9] 0.068 | IRAK-1-4 Inhibitor I 0.005 | ibrutinib -0.204 | [10] -0.056 | ralimetinib 0.001 | [11] -0.069 | [12] 0.019 | [13] 0.033 | pinometostat -0.019 | [14] 0.016 | [15] 0.016

MRPS11 (UniProt P82912)
inactive: erlotinib 0.006 | [1] -0.068 | [2] 0.165 | [3] 0.12 | [4] -0.029 | [5] -0.001 | [6] 0.098 | [7] 0.186 | [8] -0.214 | [9] -0.059 | IRAK-1-4 Inhibitor I -0.085 | ibrutinib 0.03 | [10] -0.037 | ralimetinib -0.033 | [11] -0.049 | [12] -0.088 | [13] -0.041 | pinometostat 0.041 | [14] 0.036 | [15] -0.071

MTPAP (UniProt Q9NVV4)
inactive: erlotinib 0.019 | [1] -0.047 | [2] -0.078 | [3] -0.012 | [4] -0.026 | [5] 0.112 | [6] 0.003 | [7] 0.003 | [8] -0.048 | [9] -0.02 | IRAK-1-4 Inhibitor I -0.129 | ibrutinib 0.003 | [10] -0.052 | ralimetinib 0.069 | [11] -0.007 | [12] -0.129 | [13] 0.141 | pinometostat 0.166 | [14] -0.018 | [15] 0.003

MYDGF (UniProt Q969H8)
inactive: erlotinib -0.01 | [1] -0.042 | [2] 0.031 | [3] 0.013 | [4] -0.039 | [5] 0.008 | [6] 0.013 | [7] -0.008 | [8] -0.004 | [9] 0.064 | IRAK-1-4 Inhibitor I 0.09 | ibrutinib 0.012 | [10] 0.022 | ralimetinib -0.049 | [11] 0.031 | [12] 0.065 | [13] -0.027 | pinometostat -0.045 | [14] 0.015 | [15] -0.021

MTM1 (UniProt Q13496)
inactive: erlotinib 0.014 | [1] 0.052 | [2] -0.014 | [3] 0.031 | [4] -0.058 | [5] 0.027 | [6] -0.01 | [7] 0.03 | [8] -0.034 | [9] 0.046 | IRAK-1-4 Inhibitor I -0.023 | ibrutinib 0.029 | [10] -0.02 | ralimetinib -0.032 | [11] 0.034 | [12] 0.019 | [13] -0.03 | pinometostat 0.007 | [14] -0.014 | [15] 0.015

MRPS28 (UniProt Q9Y2Q9)
inactive: erlotinib -0.08 | [1] 0.071 | [2] 0.003 | [3] 0.096 | [4] -0.061 | [5] -0.001 | [6] 0.028 | [7] 0.082 | [8] -0.044 | [9] -0.091 | IRAK-1-4 Inhibitor I -0.036 | ibrutinib 0.033 | [10] 0.003 | ralimetinib 0.038 | [11] 0.015 | [12] 0.032 | [13] 0.262 | pinometostat 0.016 | [14] 0.013 | [15] -0.137

MTX1 (UniProt Q13505)
inactive: erlotinib -0.002 | [1] -0.005 | [2] 0.104 | [3] -0.042 | [4] 0.009 | [5] 0.007 | [6] 0.042 | [7] -0.005 | [8] -0.018 | [9] 0.019 | IRAK-1-4 Inhibitor I 0.024 | ibrutinib 0.015 | [10] -0.011 | ralimetinib -0.068 | [11] -0.012 | [12] 0.079 | [13] 0.013 | pinometostat -0.024 | [14] -0.021 | [15] 0.007

MYADM (UniProt Q96S97)
inactive: erlotinib -0.013 | [1] 0.004 | [2] -0.004 | [3] 0.033 | [4] 0.111 | [5] 0.143 | [6] 0.106 | [7] -0.079 | [8] -0.029 | [9] 0.052 | IRAK-1-4 Inhibitor I -0.11 | ibrutinib 0.011 | [10] -0.046 | ralimetinib 0.027 | [11] -0.005 | [12] -0.053 | [13] -0.046 | pinometostat -0.032 | [14] 0.034 | [15] 0.03

MTHFR isoform 2 (UniProt P42898)
inactive: erlotinib 0.021 | [1] 0.042 | [2] 0.081 | [3] 0.018 | [4] 0.053 | [5] 0.01 | [6] 0.001 | [7] 0.048 | [8] 0.039 | [9] 0.046 | IRAK-1-4 Inhibitor I 0.046 | ibrutinib 0.012 | [10] 0.018 | ralimetinib 0 | [11] -0.032 | [12] 0.003 | [13] -0.017 | pinometostat -0.029 | [14] -0.018 | [15] 0.122
